Measured values taken from patent US20260049104A1, “PEPTIDES WITH ANTIMICROBIAL PROPERTIES” (priority 2022, published 2026).
Some of these results come from one statement about several compounds together.

Test system: Gram-positive and Gram-negative bacteria
Details: E. coli ATCC 25922 and K. pneumoniae ATCC 700603
Description: MIC screening of the peptides against a panel of ATCC and clinical strains was performed using broth microdilution method.^1 Briefly, peptides stock solutions in DMSO (0.1/G TFA) were diluted into Mueller Hinton Broth (MHB), followed by two-fold serial dilution in a 96-well plate. Bacteria culture in mid-log phase was diluted into MHB to yield […] colony-forming units (CFU)/mL. Equal volume of the starting inoculum was added to the peptide samples, then incubated for 18-20 h (37° C., 120 rpm). OD600 of the samples was then measured using Tecan Infinite M200 (TECAN, Männedorf, Switzerland). MIC is defined as the lowest peptide concentration to achieve more than 90% reduction in OD600 relative to the drug-free control. The experiments were repeated three times. Colistin-resistant clinical isolates are a kind gift from Dr. Jeanette Koh (National University Hospital, Singapore). Multidrug-resistant clinical isolates are a kind gift from Dr. Lakshminarayanan Rajamani (Singapore Eye Research Institute, Singapore).
Kanamycin and ampicillin were used as antibacterial control agents. […] Then, sequential 2-fold serial dilutions of the mix were diluted in 50 μL MH broth and 50 μL cell cultures were added to wells. […] All assays were carried out in triplicate.

In the case of `CC(C)[C@@H]1NC(=O)[C@@H](N)Cc2c[nH]c3cc(ccc23)C(C(N)=O)[C@@H](C(=O)N[C@@H](C)C(=O)N[C@H]2Cc3ccc(cc3)C(C(N)=O)[C@@H](C(=O)N[C@H]3Cc4c[nH]c5cc(ccc45)C(CCCN)[C@@H](C(=O)N[C@@H](CCCNC(=N)N)C(=O)N[C@@H](Cc4ccccc4)C(=O)O)NC(=O)[C@H]([C@@H](C)O)NC3=O)NC(=O)[C@H](C)NC2=O)NC1=O` (stereo partly shown) [xenorceptide A8], the “activity against Gram-negative pathogens” value is reported as “selective activity”.
